No constants are given. Whether binding was seen depends on the method and setting. In cells and extracts the contact can be indirect. Some results given as binding are weak or reduced against the parent protein; the word gives no strength. For some assays here: Sequences can lack the tags named with a protein. Each block holds one molecule with its values, some of them ahead of it.
Columns and labels:
[1] = target: SMARCA4 (endogenous, HEK 293T) (human (endogenous in HEK 293T)) (UniProt P51532); assay: co-IP; HEK 293T cells expressing Flag-tagged HNF1A; co-immunoprecipitation of SMARCA4 in the presence of benzonase
HA-tagged HNF1A, P20823 = target: T1, HA-tagged HNF1A, P20823; assay: co-IP; reciprocal immunoprecipitations of tagged HNF1A and HNF1B in WT and SMARCA2/4 double-knockout HEK 293T cells (the knockout reduced HNF1A homo- and heterodimerization, not HNF1B homodimerization); settings: remark: other sources report otherwise
T1 chain: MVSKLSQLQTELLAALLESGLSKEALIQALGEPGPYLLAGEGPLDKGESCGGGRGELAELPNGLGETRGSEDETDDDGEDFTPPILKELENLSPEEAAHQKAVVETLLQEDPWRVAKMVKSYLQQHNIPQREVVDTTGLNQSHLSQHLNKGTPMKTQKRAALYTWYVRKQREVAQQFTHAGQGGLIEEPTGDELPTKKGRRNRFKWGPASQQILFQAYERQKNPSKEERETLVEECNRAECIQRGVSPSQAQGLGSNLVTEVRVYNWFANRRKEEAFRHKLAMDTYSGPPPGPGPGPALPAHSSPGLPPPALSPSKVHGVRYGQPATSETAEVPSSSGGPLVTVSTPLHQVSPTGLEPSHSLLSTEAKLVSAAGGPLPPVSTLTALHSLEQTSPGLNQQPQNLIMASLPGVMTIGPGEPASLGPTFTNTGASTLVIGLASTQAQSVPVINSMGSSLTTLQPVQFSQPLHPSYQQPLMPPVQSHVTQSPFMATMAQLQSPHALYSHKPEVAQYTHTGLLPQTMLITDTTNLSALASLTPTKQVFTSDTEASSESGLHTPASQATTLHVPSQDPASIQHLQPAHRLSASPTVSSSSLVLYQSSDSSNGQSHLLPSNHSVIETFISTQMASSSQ

Amino acid sequences for entries named in this document (tags omitted).
UniProt P51532: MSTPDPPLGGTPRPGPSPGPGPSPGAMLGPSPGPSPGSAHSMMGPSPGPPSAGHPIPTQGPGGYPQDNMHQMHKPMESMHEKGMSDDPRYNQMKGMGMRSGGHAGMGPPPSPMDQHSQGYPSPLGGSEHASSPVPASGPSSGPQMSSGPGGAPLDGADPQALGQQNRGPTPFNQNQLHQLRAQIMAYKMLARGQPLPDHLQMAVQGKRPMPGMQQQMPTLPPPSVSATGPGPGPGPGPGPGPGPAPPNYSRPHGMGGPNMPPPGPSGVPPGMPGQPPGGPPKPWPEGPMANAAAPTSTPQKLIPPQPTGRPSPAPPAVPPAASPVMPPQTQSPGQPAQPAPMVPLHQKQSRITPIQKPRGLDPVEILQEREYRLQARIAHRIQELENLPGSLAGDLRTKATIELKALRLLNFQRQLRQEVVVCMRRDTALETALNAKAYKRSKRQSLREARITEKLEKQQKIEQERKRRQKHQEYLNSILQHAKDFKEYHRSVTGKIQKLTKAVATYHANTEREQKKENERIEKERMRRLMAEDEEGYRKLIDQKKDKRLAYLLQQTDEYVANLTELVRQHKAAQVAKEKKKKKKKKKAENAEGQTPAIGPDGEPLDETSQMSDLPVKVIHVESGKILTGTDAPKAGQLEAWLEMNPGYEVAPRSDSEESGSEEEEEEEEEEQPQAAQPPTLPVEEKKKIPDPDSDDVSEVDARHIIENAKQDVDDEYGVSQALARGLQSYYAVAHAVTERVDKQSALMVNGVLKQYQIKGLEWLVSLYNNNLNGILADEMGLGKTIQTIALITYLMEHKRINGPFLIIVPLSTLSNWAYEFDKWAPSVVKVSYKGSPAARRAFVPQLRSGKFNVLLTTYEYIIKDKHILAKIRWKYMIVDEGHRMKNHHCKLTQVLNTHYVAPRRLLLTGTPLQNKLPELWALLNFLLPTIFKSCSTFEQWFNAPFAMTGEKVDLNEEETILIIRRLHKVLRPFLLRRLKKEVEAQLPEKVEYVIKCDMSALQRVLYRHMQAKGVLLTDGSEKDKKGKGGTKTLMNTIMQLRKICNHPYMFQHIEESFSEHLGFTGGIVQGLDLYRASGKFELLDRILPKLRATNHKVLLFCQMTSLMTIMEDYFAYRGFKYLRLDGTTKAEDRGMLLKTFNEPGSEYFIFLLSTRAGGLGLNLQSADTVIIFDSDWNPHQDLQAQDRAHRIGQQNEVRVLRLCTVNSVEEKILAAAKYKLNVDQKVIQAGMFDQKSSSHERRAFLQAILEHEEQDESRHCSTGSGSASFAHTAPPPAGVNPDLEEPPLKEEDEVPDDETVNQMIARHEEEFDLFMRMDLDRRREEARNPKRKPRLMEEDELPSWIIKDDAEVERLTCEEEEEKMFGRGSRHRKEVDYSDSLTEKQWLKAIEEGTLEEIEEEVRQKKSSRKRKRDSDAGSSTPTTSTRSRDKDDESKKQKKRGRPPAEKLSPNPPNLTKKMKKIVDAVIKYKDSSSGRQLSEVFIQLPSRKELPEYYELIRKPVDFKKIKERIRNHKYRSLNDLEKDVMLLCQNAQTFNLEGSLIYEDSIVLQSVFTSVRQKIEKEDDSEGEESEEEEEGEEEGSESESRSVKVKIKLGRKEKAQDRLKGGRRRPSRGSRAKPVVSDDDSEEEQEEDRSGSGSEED

Molecule: Flag-tagged HNF1A (from UniProt P20823 1-631)
- binding [1]: no binding (condition: with benzonase treatment)

- binding (HA-tagged HNF1A, P20823): binds
B1: HA-tagged HNF1A, P20823 1-631 (protein)
chain: T1 chain

— paper PMC10011139
